{"source": "PubChem BioAssay AID1259425 (University of Nebraska Medical Center, 2018)", "aim": "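Find knockdowns that reproduce the gene expression pattern seen when KSR1 is lost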 (primary screen)", "system": "HCT116 human colon cancer cells", "reagents": "siRNA pool against human genes, 50 nM siRNA", "detection": "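mRNA of six signature genes measured together by branched-DNA assay after 50 nM siRNA pool, blank removed, divided by geometric mean of two housekeeping genes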", "direction": "BNIP3L mRNA: higher = more BNIP3L transcript after knockdown", "note": "In all, the deposit lists about 14,000 reagents; this is a random part of them. Further read-outs or replicates are left out here. No sequences are given here. The record does not give: the time to read-out."}
{"Gene": "PEX12", "BNIP3L mRNA, set 1": 0.178}
{"Gene": "ANK3", "BNIP3L mRNA, set 1": 0.0948}
{"Gene": "CA6", "BNIP3L mRNA, set 1": 0.354}
{"Gene": "CCDC71", "BNIP3L mRNA, set 1": 0.048}
{"Gene": "TRPC7", "BNIP3L mRNA, set 1": 0.0822}
{"Gene": "SFN", "BNIP3L mRNA, set 1": 0.0484}
{"Gene": "RGS6", "BNIP3L mRNA, set 1": 0.0979}
{"Gene": "STX4", "BNIP3L mRNA, set 1": 0.15}
{"Gene": "EXOSC9", "BNIP3L mRNA, set 1": 0.156}
{"Gene": "SACK1A", "BNIP3L mRNA, set 1": 0.16}

2 consecutive entries from above:
{"Gene": "SFN", "BNIP3L mRNA, set 1": 0.0484}
{"Gene": "RGS6", "BNIP3L mRNA, set 1": 0.0979}

The results go on:
{"Gene": "HELZ2", "BNIP3L mRNA, set 1": 0.0915}
{"Gene": "ZNF556", "BNIP3L mRNA, set 1": 0.182}
{"Gene": "FIGN", "BNIP3L mRNA, set 1": 0.0863}
{"Gene": "BRINP1", "BNIP3L mRNA, set 1": 0.0738}
{"Gene": "SPC25", "BNIP3L mRNA, set 1": 0.0923}
{"Gene": "UCHL5", "BNIP3L mRNA, set 1": 0.0795}
{"Gene": "SLC16A8", "BNIP3L mRNA, set 1": 0.0578}
{"Gene": "RBP1", "BNIP3L mRNA, set 1": 0.0865}
{"Gene": "HGF", "BNIP3L mRNA, set 1": 0.0774}
